1 compound from patent US5880160A (priority 1995, dated 1999) can be followed below.

The assay has as its system MCF-7 (human breast). Kind of assay: cells. The following applies: MCF7, read-out: IC50 MCF-7 (human breast). Type of assay: cell-based.

Each structure is given as a SMILES string.

As a reminder, the IC50 is the midpoint of a concentration-inhibition curve.

Regarding `COc1cc2c(c(OC)c1OC)-c1ccc(OC)c(=O)cc1[C@@H](NC(C)=O)CC2` [Colchicine, colchicine, reference compound], the IC50 turned out to be 4.4 ± 0.3 nM.
